The text below walks through data of article doi:10.1101/2024.01.05.574302 (bioRxiv, 2024).

Chains of the proteins cited; added tags and fusions are not shown.
UniProt Q9QWY8: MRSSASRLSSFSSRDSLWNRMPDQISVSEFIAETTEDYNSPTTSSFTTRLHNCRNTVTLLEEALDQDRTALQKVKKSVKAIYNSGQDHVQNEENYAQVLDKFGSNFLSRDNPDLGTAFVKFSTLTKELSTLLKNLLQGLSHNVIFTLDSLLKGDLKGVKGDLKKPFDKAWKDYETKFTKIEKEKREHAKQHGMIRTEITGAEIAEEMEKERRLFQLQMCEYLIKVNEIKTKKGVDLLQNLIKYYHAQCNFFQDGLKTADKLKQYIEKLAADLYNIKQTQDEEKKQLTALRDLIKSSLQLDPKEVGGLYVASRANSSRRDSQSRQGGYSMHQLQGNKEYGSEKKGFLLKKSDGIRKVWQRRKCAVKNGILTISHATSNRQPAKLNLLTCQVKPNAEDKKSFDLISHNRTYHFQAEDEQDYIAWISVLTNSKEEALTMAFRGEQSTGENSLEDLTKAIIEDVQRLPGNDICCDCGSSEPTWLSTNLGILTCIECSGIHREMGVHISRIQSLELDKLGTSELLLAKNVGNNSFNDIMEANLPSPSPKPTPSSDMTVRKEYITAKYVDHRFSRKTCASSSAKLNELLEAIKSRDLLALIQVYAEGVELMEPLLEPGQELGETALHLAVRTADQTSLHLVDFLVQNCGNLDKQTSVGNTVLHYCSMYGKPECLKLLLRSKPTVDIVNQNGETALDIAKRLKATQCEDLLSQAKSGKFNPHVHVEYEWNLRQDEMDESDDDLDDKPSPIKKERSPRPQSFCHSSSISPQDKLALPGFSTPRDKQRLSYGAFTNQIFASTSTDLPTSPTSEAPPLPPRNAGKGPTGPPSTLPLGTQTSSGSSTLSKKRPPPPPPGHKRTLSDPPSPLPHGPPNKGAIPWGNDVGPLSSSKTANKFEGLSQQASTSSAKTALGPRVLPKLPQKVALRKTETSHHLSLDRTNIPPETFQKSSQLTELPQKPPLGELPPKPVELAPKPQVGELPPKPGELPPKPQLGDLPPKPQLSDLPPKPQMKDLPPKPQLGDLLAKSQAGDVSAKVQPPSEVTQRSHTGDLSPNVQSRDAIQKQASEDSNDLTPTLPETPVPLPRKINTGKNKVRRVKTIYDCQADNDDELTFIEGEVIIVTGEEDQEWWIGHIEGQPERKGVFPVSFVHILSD
UniProt Q7SIG6: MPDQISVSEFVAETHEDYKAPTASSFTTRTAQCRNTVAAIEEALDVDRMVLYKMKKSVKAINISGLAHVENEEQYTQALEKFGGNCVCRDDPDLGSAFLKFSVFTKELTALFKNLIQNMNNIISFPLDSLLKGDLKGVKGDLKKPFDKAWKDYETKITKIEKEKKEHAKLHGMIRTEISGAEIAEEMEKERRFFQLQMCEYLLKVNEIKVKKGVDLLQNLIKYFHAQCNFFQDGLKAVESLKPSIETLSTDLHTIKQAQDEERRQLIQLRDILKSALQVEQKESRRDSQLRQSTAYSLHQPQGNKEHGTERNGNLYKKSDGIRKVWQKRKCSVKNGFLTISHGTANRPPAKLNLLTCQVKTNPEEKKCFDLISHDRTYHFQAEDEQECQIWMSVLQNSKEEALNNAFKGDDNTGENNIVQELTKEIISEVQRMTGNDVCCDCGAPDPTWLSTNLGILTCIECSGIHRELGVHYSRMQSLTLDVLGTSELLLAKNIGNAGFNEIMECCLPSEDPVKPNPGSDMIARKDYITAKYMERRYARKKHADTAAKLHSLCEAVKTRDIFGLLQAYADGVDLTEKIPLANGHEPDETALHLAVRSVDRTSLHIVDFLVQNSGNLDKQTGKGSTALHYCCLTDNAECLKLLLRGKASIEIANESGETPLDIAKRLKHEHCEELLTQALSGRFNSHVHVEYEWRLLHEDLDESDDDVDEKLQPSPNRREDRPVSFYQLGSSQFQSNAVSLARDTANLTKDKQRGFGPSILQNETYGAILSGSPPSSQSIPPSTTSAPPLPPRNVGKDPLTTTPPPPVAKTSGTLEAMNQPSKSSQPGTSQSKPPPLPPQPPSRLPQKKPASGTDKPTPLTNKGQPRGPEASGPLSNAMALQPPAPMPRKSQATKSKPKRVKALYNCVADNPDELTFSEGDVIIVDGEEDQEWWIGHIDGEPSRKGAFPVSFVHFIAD

No constants are given. Whether binding was seen depends on the method and setting. In cells and extracts the contact can be indirect. A yes stands for co-enrichment or nearness to the bait. Other partners may have been found. Where a sequence is shown, tags or fusion partners need not be part of it.

This experiment concerns the target T1, gAnkB (aa. 1476-1727) fragment of the neurospecific domain, Trx-His6-3×StrepII fusion (human) (UniProt Q01484).
T1 sequence: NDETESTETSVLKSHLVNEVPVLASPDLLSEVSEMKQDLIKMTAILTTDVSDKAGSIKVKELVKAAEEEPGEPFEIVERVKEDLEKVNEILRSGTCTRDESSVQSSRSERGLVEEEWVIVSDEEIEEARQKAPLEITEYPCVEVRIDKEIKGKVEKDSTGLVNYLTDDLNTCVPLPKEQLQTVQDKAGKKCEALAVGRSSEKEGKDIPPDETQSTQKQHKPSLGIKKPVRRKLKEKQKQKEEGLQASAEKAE
Kind of experiment: affinity purification with mass spectrometry.

For the substance “ASAP1 (endogenous, mouse brain) (from UniProt Q9QWY8 1-1147)”, the binding result is “binds”.

Take “ASAP2 (endogenous, mouse brain) (from UniProt Q7SIG6 1-958)”: the binding entry is “binds”.
